Several values for one entry are separate records, joined by “and”; a condition that tells them apart may be missing. Equal entries are not always repeated. Entries after “also recorded” stand apart in the source; their conditions may differ. Where two headings read alike, the source gives them in different places. Not every detail of the peptide structures is certain; ends, links or a residue may be inferred. Residues, ends and D or L forms follow the SMILES beside them.
Experiments:
[1] = tested on: isolated adult rat cardiac myocytes; type: cell-based; conditions: for % Change baseline SL / % Change dep v (shortening rate) / % Change peak h (shortening amplitude) / % Change ret v (re-lengthening rate): 15 minutes
Excerpt: (§1) Adult rat and rabbit ventricular cardiac myocytes were isolated as previously described (Westfall, M. V. Et al. (1997), Westfall, M. V. and Borton, A. R. (2003)). Hearts from Sprague-Dawley rats and New Zealand white rabbits were perfused and enzymatically digested to isolate myocytes; the protocol was approved by The University of Michigan University Committee on Use and Care of Animals (UCUCA) in accordance with university and federal regulatory guidelines. Aliquots of isolated ventricular myocytes were plated on laminin-coated glass coverslips in serum-containing Dulbecco's Modified Eagle Media (Invitrogen, CA, US) supplemented with 5% fetal bovine serum, and 50 U/ml penicillin and 50 μg/ml streptomycin (pen/strep; Sigma-Aldrich, MO, US). Two hours later, media was replaced with serum-free M199 (Invitrogen) supplemented with 1.8 mM Ca^2+, 10 mM HEPES, 10 mM glutathione, and pen/strep. Rat myocytes were transferred to a stimulation chamber and electrically paced the day after isolation (Zornik, E. Et al. (1999), Westfall, M. V. Et al. (1997)). Media was changed daily for all myocyte preparations.
(§2) Sarcomere shortening was detected using a video-based detection system (IonOptix, MA, USA) as described earlier (Westfall, M. V. and Borton, A. R. (2003)). Rat myocytes were paced at 0.2 Hz and rabbit myocytes were paced at 0.5 Hz or 1.0 Hz for these studies. Recordings were made prior to application of each peptide concentration, the protein kinase C (PKC) inhibitor bisindolylmaleimide-1, (bis-1; CalBiochem/EMD, NJ, US), or media only (control, C) and at 1, 3, 5, 10 and 15 minutes after application of peptide, bis-1, or media. Signal averaged data were analyzed to determine resting sarcomere length, shortening amplitude (peak shortening), shortening rate (departure velocity), and re-lengthening rate (return velocity), as previously described (Westfall, M. V. Et al. (1997), Westfall, M. V. and Borton, A. R. (2003)), in 7-20 myocytes from 3-4 rats for each peptide concentration, bis-1, and media.

Protein sequences, listed by entry. Tags and fused reporters are not part of them. Lines headed by an entry give the natural chain unless they say otherwise; changes in a name come on top.
UniProt Q9GZQ6: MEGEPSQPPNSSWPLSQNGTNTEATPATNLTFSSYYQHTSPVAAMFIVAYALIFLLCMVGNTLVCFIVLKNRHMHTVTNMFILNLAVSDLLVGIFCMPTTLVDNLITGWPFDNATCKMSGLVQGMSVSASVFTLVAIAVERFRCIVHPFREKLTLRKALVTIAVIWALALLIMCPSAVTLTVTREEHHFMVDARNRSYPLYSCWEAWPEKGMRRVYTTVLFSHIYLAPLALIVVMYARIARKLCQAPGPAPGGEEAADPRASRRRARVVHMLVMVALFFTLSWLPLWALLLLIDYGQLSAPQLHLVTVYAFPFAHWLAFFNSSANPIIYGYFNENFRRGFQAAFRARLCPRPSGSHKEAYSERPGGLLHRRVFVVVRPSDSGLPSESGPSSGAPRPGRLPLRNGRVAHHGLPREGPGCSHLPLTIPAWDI

[2] = tested on: isolated adult rabbit cardiac myocytes; assay: Sarcomere shortening in isolated adult rabbit cardiac myocytes; type: cell-based
Protocol: FIG. 7. A. Representative sarcomere shortening traces in isolated adult rabbit cardiac myocytes paced at 0.5 Hz. A signal-averaged recording from 10 traces was made in myocytes 1 day after isolation (n=3). Recordings show shortening before and 15 minutes after initiating perfusion with 10^−10 M hRFRP-1 or media (control) at 37° C.
as §1, §2

[3] = tested on: rabbit cardiac myocyte proteins; assay: 32P-labeling of rabbit cardiac myocyte proteins; type: cell-based; conditions: band detected at 24 kDa; 10^−7 M per FIG. 7C legend
[4] = tested on: mouse heart; assay: Echocardiography in mice after tail-vein injection; type: in vivo; conditions: for % Change CO / % Change EF % / % Change HR / % Change SV: 5 minutes
Protocol: Echocardiograms were performed as previously described (Boluyl, M. O. Et al. (2004)) according to the recommendations of the American Society of Echocardiography. All echocardiography was performed by one registered echocardiographer. Female C57BL/6 mice were weighed to accurately calculate the amount of peptide delivered per kilogram body weight (kg bw). Animal use for echocardiography was approved by The University of Michigan UCUCA in accordance with university and federal regulatory guidelines. Physiological saline or peptide was intravenously delivered via tail-vein injections to a total volume of 150 μl to achieve 5 μmols or 500 ηmols hRFRP-1/kg bw. Each animal was used only once for an injectant, either physiological saline or peptide (n=4-5). Briefly, a mouse was placed in an induction chamber and lightly sedated with 4% isoflurane mixed with 100% oxygen, then placed in a supine position on a heated platform with electrocardiogram contact pads (VEVO™ mouse handling platform; VisualSonics, ON, CA), and its nose placed in a cone with 1% isoflurane in 100% oxygen. High-resolution, two-dimensionally guided recordings of amplitude and rate of motion (M-mode) were obtained with a real-time 30-MHz microvisualization scanhead, RMV™ 707B, interfaced to a Vevo 770™ in vivo micro-imaging system (VisualSonics). Heart rate along with left ventricular end-systolic and end-diastolic dimensions were measured from the two-dimensional sector scans obtained from the parasternal long axis and apical four chamber views using the conventions of the American Society of Echocardiography. For each M-mode measurement, at least three consecutive cardiac cycles were sampled. Left ventricular volumes were measured at end systole (Vols) and end diastole (Vold) and used to calculate stroke volume (SV=Vold−Vols) and ejection fraction (EF %=endocardial SV/endocardial Vold×100). Cardiac output (CO=endocardial SV×heart rate) was calculated from stroke volume and heart rate.
In vivo affect of hRFRP-1 in mouse was investigated. Echocardiography (ECHO) was used to assess the effect of 10^−8M hRFRP-1 (n=3) and control (saline; n=3) on cardiac function via tail vein injection; six C57BL/6 littermates, female, ≈20 grams, and ˜4 weeks old. Studies were conducted blind; tail vein injections were done by a registered animal lab technologist. ECHO measurements were done by a registered echocardiologist. Data are percent changes in parameters t=10 minutes post-injection compared to value at t=0 minutes, pre-injection (FIG. 14). […] Also, endocardial stroke volume (SV) differed, 10^−8M hRFRP-1 (−75%) versus saline (+22%). […] An exciting finding is that in response to 10^−8M hRFRP-1 the EF values are indicative of cardiac failure; they fall below 50%.

[5] = target: expressed rfr-2 (Homo sapiens, UniProt Q9GZQ6); conditions: cited from earlier work
[6] = 10^−8 M in the presence of Bis-1 (500 ηM)
[7] = 10^−10 M, compared to media only
[8] = 10^−8M, tail vein, t=10 minutes post-injection vs t=0

Compound: CSCC[C@H](N)C(=O)N1CCC[C@H]1C(=O)N[C@@H](Cc1c[nH]cn1)C(=O)N[C@@H](CO)C(=O)N[C@@H](Cc1ccccc1)C(=O)N[C@@H](C)C(=O)N[C@@H](CC(N)=O)C(=O)N[C@@H](CC(C)C)C(=O)N1CCC[C@H]1C(=O)N[C@@H](CC(C)C)C(=O)N[C@@H](CCCNC(=N)N)C(=O)N[C@@H](Cc1ccccc1)C(N)=O [hRFRP-1] (H-MPHSFANLPLRF-NH2)
- % Change baseline SL ([1]; 10^−6 M): 0.3 ± 0.3%
- % Change dep v (shortening rate) ([1]; 10^−6 M): −35.2 ± 3.8 %
- % Change peak h (shortening amplitude) ([1]; 10^−6 M): −31.2 ± 4.4 %
- % Change ret v (re-lengthening rate) ([1]; 10^−6 M): −29.7 ± 5.4 %
- % Change baseline SL ([1]; 10^−7 M): −0.3 ± 0.2%
- % Change dep v (shortening rate) ([1]; 10^−7 M): −28.2 ± 4.6 %
- % Change peak h (shortening amplitude) ([1]; 10^−7 M): −27.9 ± 4.9 %
- % Change ret v (re-lengthening rate) ([1]; 10^−7 M): −31.0 ± 4.6 %
- resting sarcomere length ([1]; 10^−8 M in the presence of 500 ηM bis-1, 1 minute): 1.76±0.01 μm
- resting sarcomere length ([1]; 10^−8 M in the presence of 500 ηM bis-1, 5 minutes): 1.76±0.01 μm
- resting sarcomere length ([1]; 10^−8 M in the presence of 500 ηM bis-1, 10 minutes): 1.75±0.01 μm
- resting sarcomere length ([1]; 10^−8 M in the presence of 500 ηM bis-1, 15 minutes): 1.75±0.01 μm
- % Change baseline SL [1, 6]: −0.52 ± 0.2%
- % Change dep v (shortening rate) [1, 6]: −12.3±4.6%
- % Change peak h (shortening amplitude) [1, 6]: −0.58±4.8% and 0.58 ± 4.8%
- % Change ret v (re-lengthening rate) [1, 6]: −5.6±4.7%
- % Change baseline SL ([1]; 10^−8 M): −0.01 ± 0.2%
- % Change dep v (shortening rate) ([1]; 10^−8 M): −27.7 ± 3.5 %
- % Change peak h (shortening amplitude) ([1]; 10^−8 M): −26.6 ± 2.9 %
- % Change ret v (re-lengthening rate) ([1]; 10^−8 M): −30.1 ± 3.2 %
- % Change baseline SL ([1]; 10^−9 M): 0.3 ± 0.1%
- % Change dep v (shortening rate) ([1]; 10^−9 M): −29.5 ± 7.9 %
- % Change peak h (shortening amplitude) ([1]; 10^−9 M): −26.8 ± 7.4 %
- % Change ret v (re-lengthening rate) ([1]; 10^−9 M): −31.7 ± 6.2 %
- % Change baseline SL ([1]; 10^−10 M): −0.06 ± 0.2%
- % Change dep v (shortening rate) ([1]; 10^−10 M): −23.1 ± 4.3 %
- % Change peak h (shortening amplitude) ([1]; 10^−10 M): −9.6 ± 2.7%
- % Change ret v (re-lengthening rate) ([1]; 10^−10 M): −21.8 ± 2.9 %
- % Change baseline SL ([1]; 10^−11 M): −0.2 ± 0.2%
- % Change dep v (shortening rate) ([1]; 10^−11 M): −14.7 ± 5.2%
- % Change peak h (shortening amplitude) ([1]; 10^−11 M): −6.3 ± 4.7%
- % Change ret v (re-lengthening rate) ([1]; 10^−11 M): −11.2 ± 4.5%
- resting sarcomere length ([1]; 1 minute of perfusion with peptide): 1.76±0.01 μm
- resting sarcomere length ([1]; 3 minutes of perfusion with peptide): 1.76±0.01 μm
- resting sarcomere length ([1]; 5 minutes of perfusion with peptide): 1.76±0.01 μm
- resting sarcomere length ([1]; 10 minutes of perfusion with peptide): 1.75±0.01 μm
- resting sarcomere length ([1]; 15 minutes of perfusion with peptide): 1.75±0.01 μm
- re-lengthening rate (return velocity, relaxation), in words [2, 7]: dramatically decreased; also recorded: slowed relaxation
- shortening amplitude (peak shortening), in words [2, 7]: dramatically decreased
- shortening rate, in words [2, 7]: not significant
- resting length versus control ([2]; 10^−10M, n=20 vs media only): not significantly different
- time from peak to 50% re-lengthening (TTR50%) versus control ([2]; 10^−10M, n=20 vs media only): statistically different
- time to peak (TTP 50%) versus control ([2]; 10^−10M, n=20 vs media only): not significantly different
- increase in phosphorylation above basal value [3]: 4.0±1.4 fold
- % Change CO ([4]; 5 μmol/kg bw intravenous): −79 ± 7%
- % Change EF % ([4]; 5 μmol/kg bw intravenous): −49% ± 8%
- % Change HR ([4]; 5 μmol/kg bw intravenous): −54 ± 7%
- % Change SV ([4]; 5 μmol/kg bw intravenous): −57 ± 9%
- time of peak effect post-injection ([4]; 5 μmols and 500 ηmols/kg bw): 5 min
- heart rate beats per minutes (HR, bpm), in words [4, 8]: dramatic reduction
- percent change cardiac output (CO) [4, 8]: −91%
- percent change endocardial ejection fraction (EF %) [4, 8]: −60%
- percent change endocardial stroke volume (SV) [4, 8]: −75%
- percent change systole endocardial area (LVDs) [4, 8]: +36%
- % Change CO ([4]; 500 ηmol/kg bw intravenous): −44 ± 9%
- % Change EF % ([4]; 500 ηmol/kg bw intravenous): −33% ± 10%
- % Change HR ([4]; 500 ηmol/kg bw intravenous): −25 ± 2%
- % Change SV ([4]; 500 ηmol/kg bw intravenous): −28 ± 10%
- EF values ([4]; in response to 10^−8M, tail vein): below 50%
- binding to expressed rfr-2 protein, in words [5]: specifically and tightly
